# Data: PubChem BioAssay AID504842 (National Center for Advancing Translational Sciences (NCATS), 2011)
# Hit rate of the full screen: of about 330,000 compounds, about 100 (0.03%) were called active. The shares of active, inactive and inconclusive entries below differ from those in the screen. Calls follow the shape of the dose curve; as a rule, active = well fitted inhibition curve with a large enough effect; inconclusive = small, poorly fitted or top-dose-only effect; inactive = flat fitted curve, though single readings scatter. Potencies beside an inconclusive call are fits to weak or partial responses and may not hold up.
# System: Chaperonin Mm-Cpn (Methanococcus maripaludis)
# Test: Inhibitors of TCP-1 ring complex (TRiC) of Methanococcus maripaludis (MmCpn): qHTS; also: nearly all actives have a fitted effect of over 80% in size;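 as to Potency: enzyme at 25 nM with ATP substrate at 10 µM during the reaction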
# Settings: purified Mm-Cpn ATPase, ADP Transcreener TR-FRET; activity, negative = inhibition: at the top concentration
# How it was run: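 Reaction buffer contained 30 mM Tris pH 7.4, 100 mM KCl, 5 mM MgCl2 and 1 mM DTT. Mm-CPN (25 nM final) hydrolysed 10 uM ATP over 30 min at 37°C; ADP was read by HTRF.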
# % is scaled to controls: 0 for no effect and ±100 for the full control effect; potency is read from the fitted curve at half-maximal effect.
SMILES,Potency,"activity, negative = inhibition"
COc1ccccc1C1C(C#N)=C(N)Oc2cc(C)n(Cc3ccccn3)c(=O)c21 (stereo unspecified),"inconclusive: 20 µM [inhibitor, single point]",
CCCCN1C(=O)C(=O)N(CC(=O)Nc2ccccc2C(C)=O)C1=O,"inconclusive: 70.8 µM [inhibitor, single point]",
Cc1noc2ncnc(Sc3ccc(Br)cc3)c12,,inactive: 1.26%
CN(c1cccc(NC(=O)c2ccccc2N(Cc2ccccc2)S(C)(=O)=O)c1)S(C)(=O)=O,"inconclusive: 14.1 µM [inhibitor, single point]",
c1cncc(-c2nc(-c3ccco3)cs2)c1,,inactive: -1.98%
COc1cccc(/C=N/NC(=O)CCn2nnc3ccccc32)c1,,inactive: 1.05%
N#CC(C#N)=Cc1cc2ccccc2nc1N1CCCCC1,"inconclusive: 100 µM [inhibitor, single point]",
C/C(=N\NC(=O)Cc1ccccc1)c1ccc(Cl)s1,"inconclusive: 15.8 µM [inhibitor, single point]",
COC(=O)c1ccc(CNC(=O)CCc2c[nH]c3ccccc23)cc1,"inconclusive: 56.2 µM [inhibitor, single point]",
CCOc1cc(-c2nc(-c3ccc(C)nc3OC)no2)cc(OCC)c1OCC,"inconclusive: 22.4 µM [inhibitor, single point]",
CCN(CC(=O)NCc1cccs1)c1ccc(S(=O)(=O)N2CCCC2)cn1,,inactive: 4.52%
COC(=O)c1cc(S(=O)(=O)N(C)C2CCCCC2)c[nH]1,"inconclusive: 10 µM [inhibitor, single point]",
Cc1cccc(NC(=S)NCc2ccc3c(c2)cc(C)n3C)c1C,"inconclusive: 100 µM [inhibitor, single point]",
CCCCN(Cc1ccco1)C(=O)C1CCCN(c2ncnc3c2nc2n3CCCCC2)C1 (stereo unspecified),,inactive: -5.33%
COc1ccc(-c2sc3cc(OC)ccc3c2-c2ccc(OCCN3CCOCC3)cc2)cc1,"inconclusive: 31.6 µM [inhibitor, partial curve, poor fit]",
C=CCn1c(C)cc(C(=O)COC(=O)c2cncc(Br)c2)c1C,,inactive: -5.35%
O=S(=O)(Nc1ccc(N2CCCCC2)cc1)c1cccc2cccnc12,"inconclusive: 14.1 µM [inhibitor, single point]",
COc1ccc(CCC(=O)OCC(=O)N(C)c2c(N)n(Cc3ccccc3)c(=O)[nH]c2=O)cc1,"inconclusive: 15.8 µM [inhibitor, single point]",
CCCCN(C(=O)c1cccc(S(=O)(=O)N2CCN(C)CC2)c1)c1c(N)n(CCC)c(=O)[nH]c1=O,"inconclusive: 126 µM [inhibitor, partial curve, poor fit]",
OCc1cn(Cc2ccc(O)c3ncccc23)cn1,,inactive: 0.57%
CC(NC(=O)COC(=O)c1ccccc1SCC(=O)N1CCCC1)c1ccccc1 (stereo unspecified),"inconclusive: 11.2 µM [inhibitor, single point]",
COc1ccc(NC(=O)c2cccc(OC(F)F)c2)cc1Cl,"inconclusive: 631 µM [inhibitor, partial curve, poor fit]",
Cc1ccc(-n2ncc3c(SCC(N)=O)ncnc32)cc1C,"inconclusive: 100 µM [inhibitor, single point]",

SMILES,Potency,"activity, negative = inhibition"
COc1ccc(C(C)=O)cc1CSc1ccc(S(=O)(=O)N2CCOCC2)cn1,"inconclusive: 100 µM [inhibitor, single point]",
COc1ccnc(CSC(N)=Nc2ccccc2OC)c1,,inactive: 1.42%
C=C(C)CSc1nncn1/N=C/c1ccc(OC)cc1,"inconclusive: 112 µM [inhibitor, single point]",
Cc1ccc(SCC(=O)Nc2cc(S(=O)(=O)N3CCCCC3)ccc2C)cc1,"inconclusive: 20 µM [inhibitor, single point]",
COc1ccc(C(C)=O)cc1CSc1nc2cc(Cl)ccc2o1,"inconclusive: 63.1 µM [inhibitor, single point]",
O=c1c2c(nc3c(-c4cccc(Br)c4)c[nH]n13)CCCC2,,inactive: 0.673%
Cc1ccc2nc(NCCc3ccc(Cl)cc3)c3nncn3c2c1,"inconclusive: 20 µM [inhibitor, single point]",
COCCCNc1nc2ccccc2nc1NS(=O)(=O)c1ccccc1,,inactive: -0.89%
CS(=O)(=O)Nc1ccc(C2=NN(C(=O)c3ccco3)C(c3cccc(F)c3)C2)cc1 (stereo unspecified),,inactive: 1.98%
Cc1oc2c(c1C(=O)NCc1cccnc1)C(=O)c1ccccc1C2=O,,inactive: 3.28%
Cc1ccc(NS(=O)(=O)c2cccs2)c(C)c1,"inconclusive: 316 µM [inhibitor, partial curve, poor fit]",
Cc1cc(C)c(C)c(S(=O)(=O)N2CCC(C(=O)NCC(c3ccccc3)N(C)C)CC2)c1C (stereo unspecified),"inconclusive: 63.1 µM [inhibitor, single point]",
NC(=S)c1cc2cc(Cl)ccc2oc1=O,,inactive: -2.07%
Cc1ccc(-c2csc3nc(CN(C)Cc4ccccc4)[nH]c(=O)c23)cc1,"inconclusive: 126 µM [inhibitor, partial curve, poor fit]",
CCc1cccc(OCCCCNCCOC)c1,,inactive: -0.325%
COc1cc(-c2ccc3c(=O)c4ccccc4sc3c2)cc(OC)c1OC,"inconclusive: 112 µM [inhibitor, single point]",
Cc1nc(-c2ccccc2)sc1C(=O)Nc1ccccc1F,,inactive: -0.413%
CCn1cc(S(=O)(=O)c2ccc(C)cc2)c(=O)c2cc(F)c(N3CCN(C)CC3)cc21,"inconclusive: 79.4 µM [inhibitor, single point]",
c1ccc(CNc2ncnc3sc4c(c23)CCC4)nc1,"inconclusive: 100 µM [inhibitor, partial curve, poor fit]",
Fc1ccc(-n2cc(CNCCc3cccnc3)c(-c3ccccc3Cl)n2)cc1,,inactive: -0.216%
O=P(Cc1cc(Br)cc(Br)c1OCCO)(c1ccccc1)c1ccccc1,"inconclusive: 501 µM [inhibitor, partial curve, poor fit]",
CC(C)n1c(=O)n(CC(=O)NCC2CCCO2)c(=O)c2c3c(sc21)COC(C)(C)C3 (stereo unspecified),"inconclusive: 100 µM [inhibitor, single point]",
CNC(=S)N1N=C(c2ccc(OC)cc2)CC1c1ccc(Cl)cc1Cl (stereo unspecified),"inconclusive: 70.8 µM [inhibitor, partial curve, poor fit]",

# Rewritten bar-delimited: part of the list above.
SMILES | Potency | activity, negative = inhibition
C/C(=N\NC(=O)Cc1ccccc1)c1ccc(Cl)s1 | inconclusive: 15.8 µM [inhibitor, single point] | 
COC(=O)c1ccc(CNC(=O)CCc2c[nH]c3ccccc23)cc1 | inconclusive: 56.2 µM [inhibitor, single point] | 
